Amino acid sequences for entries named in this document (tags omitted).
UniProt P35221: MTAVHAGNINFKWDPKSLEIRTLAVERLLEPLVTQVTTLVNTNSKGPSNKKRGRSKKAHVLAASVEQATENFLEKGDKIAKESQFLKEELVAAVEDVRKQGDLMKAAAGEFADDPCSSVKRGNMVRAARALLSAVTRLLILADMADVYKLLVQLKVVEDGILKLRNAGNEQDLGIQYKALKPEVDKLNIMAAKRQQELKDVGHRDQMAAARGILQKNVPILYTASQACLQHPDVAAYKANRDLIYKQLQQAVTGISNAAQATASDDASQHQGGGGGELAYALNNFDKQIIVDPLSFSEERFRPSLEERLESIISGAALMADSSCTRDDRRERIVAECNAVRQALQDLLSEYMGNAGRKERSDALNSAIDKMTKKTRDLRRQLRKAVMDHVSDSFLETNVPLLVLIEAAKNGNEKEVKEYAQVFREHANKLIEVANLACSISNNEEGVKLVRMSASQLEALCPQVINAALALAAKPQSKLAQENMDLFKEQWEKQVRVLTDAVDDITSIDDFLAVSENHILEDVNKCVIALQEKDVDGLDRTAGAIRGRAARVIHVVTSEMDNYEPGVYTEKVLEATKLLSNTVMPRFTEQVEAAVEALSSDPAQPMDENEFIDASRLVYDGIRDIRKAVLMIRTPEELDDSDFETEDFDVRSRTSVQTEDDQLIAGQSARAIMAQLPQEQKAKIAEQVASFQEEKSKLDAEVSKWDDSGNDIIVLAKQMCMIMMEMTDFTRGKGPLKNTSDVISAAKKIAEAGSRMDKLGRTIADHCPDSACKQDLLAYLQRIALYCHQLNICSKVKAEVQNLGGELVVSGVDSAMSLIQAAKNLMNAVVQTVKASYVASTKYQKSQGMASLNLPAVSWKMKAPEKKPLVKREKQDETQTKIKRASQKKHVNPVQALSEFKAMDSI
UniProt Q9Y297: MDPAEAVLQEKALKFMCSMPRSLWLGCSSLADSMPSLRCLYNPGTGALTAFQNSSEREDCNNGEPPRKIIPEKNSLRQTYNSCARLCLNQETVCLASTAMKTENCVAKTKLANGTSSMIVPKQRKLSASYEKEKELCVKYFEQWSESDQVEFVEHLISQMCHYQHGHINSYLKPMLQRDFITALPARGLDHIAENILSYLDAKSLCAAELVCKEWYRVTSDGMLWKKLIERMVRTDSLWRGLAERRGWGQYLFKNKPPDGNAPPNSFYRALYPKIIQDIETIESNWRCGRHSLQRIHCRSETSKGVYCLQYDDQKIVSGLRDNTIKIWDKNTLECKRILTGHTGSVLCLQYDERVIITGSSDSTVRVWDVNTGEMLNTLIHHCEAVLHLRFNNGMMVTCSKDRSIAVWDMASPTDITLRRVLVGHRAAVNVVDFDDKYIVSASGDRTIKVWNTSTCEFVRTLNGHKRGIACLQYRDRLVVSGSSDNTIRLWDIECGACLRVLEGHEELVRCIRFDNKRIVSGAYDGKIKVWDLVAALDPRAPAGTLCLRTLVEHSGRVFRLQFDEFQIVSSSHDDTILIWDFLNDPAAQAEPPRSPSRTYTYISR

According to publication PMC5643146:

Columns and labels:
[1] = target: α-catenin (UniProt P35221); experiment: co-IP; HEK293T cells co-transfected with 6Myc-Smed-β-catenin and a flag-tagged partner; lysis buffer 50 mM Tris-HCl pH 7.4, 300 mM NaCl, 1 mM EDTA, 1% NP-40; lysate with FLAG-M2 beads at 4°C for 6 h; immunoblot with anti-Myc or anti-Flag
[2] = target: β-Trcp (UniProt Q9Y297); experiment: as above

Smed-β-catenin3 (from UniProt A0A291LM11)
binding [1]: no binding
binding [2]: binds

These are yes or no findings as the source states them, for the method shown. In cells and extracts the contact can be indirect. For some assays here: Binding can be weak; no strength is given.
